Measurements from publication PMC12699179, “Investigating Metal and Fluorophore Controlled Intracellular Localization in Noble Metal Thiosemicarbazone Complexes” (Chemistry (Weinheim an Der Bergstrasse, Germany), 2025).
Values joined by “and” are separate entries in the source; they are usually repeats but may differ in a detail not shown here. Equal entries are not always repeated.

Experiments:
HeLa cells [1] = experiment: Live-cell confocal microscopy, colocalization with organelle trackers; assay type: cell-based; conditions: 10 µM; for subcellular localization pattern: 6 hours and 24 hours, confocal microscopy
Protocol: The subcellular behavior of the compounds was then assessed using a confocal microscope following incubation with HeLa cells (10 µM) for 6 hours and 24 hours, respectively (Figures S56, S57, and 5, 6). Moreover, we performed colocalization experiments with appropriate commercial organelle tracking dyes. As controls, we used the methyl and ethyl esters of 1 and 2, 1‐OMe and 2‐OEt, respectively. […] Moreover, the Pearson Correlation Coefficients (PCC) between 6 and the commercial lysosome tracker (LysoTracker deep red) channel improved over time from 0.63 to 0.81. Additionally, the distribution was distinct from 2‐OEt, corroborating that the Dp44mT scaffold directed the localization of the conjugates. Therefore, attaching BODIPY had no discernible effect on the lysosomal accumulation of Dp44mT.
Figure S55: Excitation (Exc) and emission (Em) spectra of BODIPY conjugates 6 and 7 at 10 µM in water. For (A) 6 and (B) 7a compounds, λex = 502 nm and λem = 519 nm; Slitwidth: […]; Sensitivity: low and medium, respectively. For (C) 7b and (D) 7c, λex = 519 nm and λem = 519 nm; Slitwidth: 5 mm; Sensitivity: medium
Live-cell imaging was carried out in 8-well cell culture chamber slides from ibidi at a starting density of 20000 cells per well in 200 µL of culture medium. The cells were incubated for 24 h at 37 °C under a 10% CO2 atmosphere. Then, 100 μL media containing the respective compounds 4, 5, 6, or 7 was added to reach a final volume of 300 μL per well with a final compound concentration of 10 μM. As controls, untreated HeLa cells were prepared under the same conditions but without the active compounds. After 6 h or 24 h of incubation, as appropriate, the media was removed, and the cells were washed twice with DMEM medium without phenol red (clear medium). A clear media solution of 100 nM LysoTrackerTM Deep-Red (InvitrogenTM) (λexc/λem = 650/660 nm) or 200 nM MitoTrackerTM Deep-Red FM (InvitrogenTM) (λexc/λem = 644/665 nm) or 750 nM ER-Tracker™ Red (InvitrogenTM) (λexc/λem = 587/615 nm) was then appropriately added to the cells, and they were incubated for another 30 min at 37 °C. Afterwards, the cells were washed twice with fresh clear medium and then covered with 200 μL clear medium for the duration of the microscopic investigations. The imaging was carried out at 37 °C using a Leica TCS-SP8 confocal laser scanning microscope equipped with an unpulsed 442 nm laser and a pulsed white light laser (WLL) (470 nm – 670 nm) using hybrid PMT or SMD detectors. Compounds 4 and 5 were excited using the 442 nm laser, and the emission was collected between 470 and 490 nm. Compounds 6 and 7 were excited at 502 nm using the WLL, and the emission was collected between 515 and 530 nm. The tracker dyes were excited at the indicated wavelengths using the WLL, and the emissions were […]
collected at the appropriate emission wavelengths. Images were acquired at 1024 x 1024 pixels and processed using LASX office program. The corresponding Pearson's Correlation Coefficients (PCCs) were calculated using Fiji (version 1.54f).[7] All experiments were repeated […]
Figure S56: Live-cell images acquired after incubating compounds 4‒5 and the control 1-OMe with HeLa cells for 6 h, respectively, at 10 µM. […]
and the red channel LysoTracker deep red. The merged channels and the corresponding Pearson Correlation Coefficients (PCC) ± standard deviation are shown on the right of each column.
(1 picture or pasted object on this page, not shown here)

HeLa cells [2] = experiment: X-ray fluorescence (XRF) imaging of subcellular Pt distribution; assay type: cell-based; conditions: 30 µM, 24 hours, XRF imaging with LysoTracker
From the text: To further validate the stark difference in the localization patterns between the coumarin‐conjugated Pt(II) complex 5b and the remaining Pt(II) (7b) and Pd(II) complexes (5c and 7c), we envisioned investigating their subcellular distributions via X‐ray fluorescence (XRF) imaging.^[ [35] ^] While XRF has been used to determine subcellular distributions of Pt complexes,^[ [36] ^] the technique has not been applied for the analysis of Pd complexes in cells, to the best of our knowledge. Nevertheless, we harnessed our experience and proceeded with the preparations for XRF samples for 2D imaging of HeLa cells (30 µM).^[ [37] ^] […]
12. X-ray fluorescence imaging (HeLa) […]
imaged with a Nikon Eclipse Ti fluorescence microscope. […]
stored in liquid nitrogen until the X-ray fluorescence measurements. […]
samples were measured at a base pressure of ≈10−7 mbar at a sample temperature of 120 K. […]
2×1010 photons/s. The fluorescence signal was detected by a Rococo 2 detector (PN […]
analyzed by peak deconvolution and fitting using the fast XRF stacking function of the software […]
calculated using a thin film XRF reference sample "RF17-200-S4218-41 "(AXO Dresden, […]
platinum (Pt – Lβ1), respectively. Also shown at the bottom is the X-ray fluorescence spectrum, […]
X-ray fluorescence spectrum, which confirms the presence of Pt in the sample. […]

| Structure (SMILES) | Pearson Correlation Coefficient (PCC) with LysoTracker deep red (HeLa cells [1]; 24 hours, ± standard deviation) | subcellular localization pattern (HeLa cells [1]) | subcellular distribution of Pt (HeLa cells [2]) | Pearson Correlation Coefficient (PCC) with LysoTracker deep red (HeLa cells [1]; 6 hours) | Pearson Correlation Coefficient (PCC) with MitoTracker (HeLa cells [1]; 24 hours, ± standard deviation) |
| --- | --- | --- | --- | --- | --- |
| COC(=O)c1cc2cc3c4c(c2oc1=O)CCCN4CCC3 [Compound 1-OMe, reference compound] | 0.46 ± 0.03 | – | – | – | – |
| CC1=CC(C)=[N+]2C1=Cc1ccc(CCC(=O)NCCc3cccc(C4=[N+]5N=C(N(C)C)[S][Au-]5([Cl])[n+]5ccccc54)n3)n1[B-]2(F)F.F[P-](F)(F)(F)(F)F (stereo not drawn) [Compound 7a] | 0.73 ± 0.01 | localization patterns mirroring those of their ligands | – | – | – |
| CN(C)C1=N[N+]2=C(c3cccc(CCNC(=O)CCCNC(=O)c4cc5cc6c7c(c5oc4=O)CCCN7CCC6)n3)c3cccc[n+]3[Pt-2]2([Cl])[S]1 (stereo not drawn) [Compound 5b] | 0.78 ± 0.03 | preferentially localized within lysosomes | colocalized with the LysoTracker | – | – |
| CC1=CC(C)=[N+]2C1=Cc1ccc(CCC(=O)NCCc3cccc(C(=NNC(=S)N(C)C)c4ccccn4)n3)n1[B-]2(F)F [Compound 6] | 0.81 and 0.81 ± 0.01 | localized in lysosomes, swelling them after 24 hours | – | 0.63 | – |
| CN(C)C1=N[N+]2=C(c3cccc(CCNC(=O)CCCNC(=O)c4cc5cc6c7c(c5oc4=O)CCCN7CCC6)n3)c3cccc[n+]3[Au-]2([Cl])[S]1.F[P-](F)(F)(F)(F)F (stereo not drawn) [Compound 5a] | 0.80 ± 0.03 | localization patterns mirroring those of their ligands | – | significantly superior to that of its ligand | – |
| CN(C)C(=S)NN=C(c1ccccn1)c1cccc(CCNC(=O)CCCNC(=O)c2cc3cc4c5c(c3oc2=O)CCCN5CCC4)n1 [Compound 4] | 0.86 ± 0.03 | – | – | – | – |
| CCOC(=O)CCc1ccc2n1[B-](F)(F)[N+]1=C(C)C=C(C)C1=C2 [Compound 2-OEt, reference compound] | 0.40 ± 0.10 | – | – | – | – |
| CC1=CC(C)=[N+]2C1=Cc1ccc(CCC(=O)NCCc3cccc(C4=[N+]5N=C(N(C)C)[S][Pt-2]5([Cl])[n+]5ccccc54)n3)n1[B-]2(F)F (stereo not drawn) [Compound 7b] | 0.47 ± 0.05 | distributed throughout the cytoplasm | diffusely cytosolic distribution | – | 0.38 ± 0.03 |
